# Publication PMC7819943, “Rice protein-binding microarrays: a tool to detect cis-acting elements near promoter regions in rice”
# Sequences of proteins named here, by UniProt entry; tags and fusion partners are left off.
# UniProt Q0JBA9, entry or part of it: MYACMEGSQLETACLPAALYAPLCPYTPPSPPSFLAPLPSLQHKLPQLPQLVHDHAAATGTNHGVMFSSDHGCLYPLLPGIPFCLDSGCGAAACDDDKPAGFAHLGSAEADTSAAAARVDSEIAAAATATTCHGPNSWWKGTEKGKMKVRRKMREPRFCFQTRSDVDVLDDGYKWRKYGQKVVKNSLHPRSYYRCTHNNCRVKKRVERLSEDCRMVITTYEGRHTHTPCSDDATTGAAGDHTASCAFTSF
# The list shows a part of the results.
# Target: OsWRKY34 (Oryza sativa, UniProt Q0JBA9 1-250)
# Assay: protein-binding microarray (RPBM); PBS, 2% BSA, 51.3 ng/ul salmon testes DNA, 50 uM zinc acetate, 200 nM TF, 25 C, 1 h; high values mean tight binding
# Conditions: protein: recombinant; tags: N-terminal polyhistidine and DsRed monomer fusion (pET32a); label: CyDye5-dUTP incorporated in the synthesized complementary strand; 3' TTTTT single-stranded linker to array surface; dsDNA, one strand shown
# How it was run: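 The binding signal is fluorescence intensity per array feature (arbitrary units). Readings came from an Axon 4000B scanner after a washed, 2% BSA-blocked, double-stranded custom Agilent array had been incubated for 1 h at 25 °C with 200 nM protein and 50 µM zinc acetate. The protein was a Ni–NTA-purified transcription factor fused N-terminally to polyhistidine and DsRed, expressed in E. coli BL21-CodonPlus.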
row,Sequence,binding signal
1,AAATTAACCACACTCGCGCCGCCATTCTCTTCTTCTTCTTCGGAGTCACCTAGTGCAG,20600 fluorescence intensity (a.u.)
2,TAAGCTAAAAATCCTAGGTATTTTTTTATATTCTTAGCTACGGAGTCACCTAGTGCAG,8580 fluorescence intensity (a.u.)
3,TCCCTGCCGGTACTGTGCAAGTACTTTTTTAATTTTTTTTCGGAGTCACCTAGTGCAG,8300 fluorescence intensity (a.u.)
4,AAGTGAGACATGCCACCCACGCGTCCATCTAATCTAATCTCGGAGTCACCTAGTGCAG,8040 fluorescence intensity (a.u.)
5,ACGTTTTTTTTTCTCCAGGTTTTTTTTGGATCGGACTCTTCGGAGTCACCTAGTGCAG,8880 fluorescence intensity (a.u.)
6,TCCCTCTCACGCCGCCGCCGCCTCGCCGCTTTCCTCTCTCCGGAGTCACCTAGTGCAG,8610 fluorescence intensity (a.u.)
7,ATACACACAGGCACACGTCCCACTCACTCGCTGCCTGCTCCGGAGTCACCTAGTGCAG,9200 fluorescence intensity (a.u.)
8,CAGTTTTTACTACTCTCGTGTCAGTCCTGCCGCTCGTTTCCGGAGTCACCTAGTGCAG,10100 fluorescence intensity (a.u.)
9,GCTTGTATTCTCTGCCGAAATCTTAAAATCTGCTGTTTCCCGGAGTCACCTAGTGCAG,10900 fluorescence intensity (a.u.)
10,TCTGCTTACCCTTCACGACGGCCACCTGTCACCATCATAGCGGAGTCACCTAGTGCAG,10500 fluorescence intensity (a.u.)
11,CGTTCCGCGAGGTCACCGTCCATCTCGACGGCGACGTCGTCGGAGTCACCTAGTGCAG,12400 fluorescence intensity (a.u.)
12,GTCTTCAGTGTAGCACTCGTTGTAATTGGCATCTTGTATGCGGAGTCACCTAGTGCAG,11300 fluorescence intensity (a.u.)
13,CGAAAGCCTTATTCTGCACACTGATCTTCCTAATTATTTTCGGAGTCACCTAGTGCAG,9320 fluorescence intensity (a.u.)
14,TGTTTCTTTTTCCGCGCGCACGTTTCCCAAACTACTAAACCGGAGTCACCTAGTGCAG,14400 fluorescence intensity (a.u.)
15,AGTTATCTCTTAATTGTATTCTAGTCTCTTTTCGAGTTGCCGGAGTCACCTAGTGCAG,9490 fluorescence intensity (a.u.)
16,TGACTTCCTTGCTGCCGGCCGAGTGTTTTTCCCTCCTTTCCGGAGTCACCTAGTGCAG,14300 fluorescence intensity (a.u.)
17,ATTGCAAGTCATTTTTGTTTTGTACTAAGTCAAATTTACACGGAGTCACCTAGTGCAG,9400 fluorescence intensity (a.u.)
18,ATTTGATACTTCTCTCGCCTTTCTTTATTATTCTCCCGCTCGGAGTCACCTAGTGCAG,8420 fluorescence intensity (a.u.)
19,CACCAACTTATCAGGCAGCACCTTCATCGAGCTCAGCAACCGGAGTCACCTAGTGCAG,8050 fluorescence intensity (a.u.)
20,GGCTTGATTTCTTCTTTTTTCTAATTTTCATATGGCTATTCGGAGTCACCTAGTGCAG,9800 fluorescence intensity (a.u.)
21,GACTGCGCCATCACCATCCATCTACAGAAGCATGCATGCACGGAGTCACCTAGTGCAG,9270 fluorescence intensity (a.u.)
22,GGATCTCTACCTTCGCCTCCAGACCGGCGCTCCGTCTCTCCGGAGTCACCTAGTGCAG,9380 fluorescence intensity (a.u.)
23,CAAAACTTTGACCAAAACGAGACCATGCAGCAATCAACCCCGGAGTCACCTAGTGCAG,8170 fluorescence intensity (a.u.)

# Some values from above:
# binding signal with ATTGCAAGTCATTTTTGTTTTGTACTAAGTCAAATTTACACGGAGTCACCTAGTGCAG is entered as 9400 fluorescence intensity (a.u.)
# binding signal with GACTGCGCCATCACCATCCATCTACAGAAGCATGCATGCACGGAGTCACCTAGTGCAG is entered as 9270 fluorescence intensity (a.u.)
